Reference: patent US20240218017A1, “PEPTIDE AMPHIPHILES WITH MODIFIED DEGRADING SEQUENCES AND METHODS OF USE THEREOF” (UAB RESEARCH FOUNDATION, priority 2022, published 2024)
Not every detail of the peptide structures is certain; ends, links or a residue may be inferred. Peptide text beside a SMILES is read from it. * marks the point of attachment. Palmitoyl = CCCCCCCCCCCCCCCC(=O)*

Experiments:
[1] = Percent transmittance of 1 wt % solutions by UV measurement (FIG. 6); format: physicochemical; conditions: 1 wt % in DI water, H2O as 100% transmittance control
[2] = Particle size by dynamic light scattering (ZetaSizer Nano ZS, FIG. 7-9); format: physicochemical; conditions: 1 wt. % PA solution diluted

Row | SMILES | percent transmittance [1] | radius (DLS) [2]
1 | CCCCCCCCCCCCCCCC(=O)NCC(=O)N[C@H](C(=O)N[C@@H](C)C(=O)NCC(=O)N[C@@H](CC(C)C)C(=O)N[C@H](C(=O)NCC(=O)N[C@@H](CCC(N)=O)C(=O)N[C@@H](Cc1ccc(O)cc1)C(=O)N[C@H](C(=O)NCC(=O)N[C@@H](CO)C(=O)N[C@@H](CCCNC(=N)N)C(=O)O)[C@@H](C)CC)[C@@H](C)CC)[C@@H](C)O [PA-C16-GTAGLIGQ-YIGSR, PA-C16-GTAGLIGQ-YIGSR (SEQ ID NO:21), reference compound] (Palmitoyl-GTAGLIGQYIGSR-OH; N-terminus and C-terminus assumed) | ~45% | above 1 um
2 | CCCCCCCCCCCCCCCC(=O)NCC(=O)N[C@H](C(=O)N[C@@H](C)C(=O)NCC(=O)N[C@@H](CC(C)C)C(=O)N[C@@H](CCCCN)C(=O)N[C@@H](CCCCN)C(=O)N[C@@H](CCCCN)C(=O)N[C@@H](Cc1ccc(O)cc1)C(=O)N[C@H](C(=O)NCC(=O)N[C@@H](CO)C(=O)N[C@@H](CCCNC(=N)N)C(=O)O)[C@@H](C)CC)[C@@H](C)O [PA-C16-GTAGLKKK-YIGSR, PA-C16-GTAGLKKK-YIGSR (SEQ ID NO:19)] (Palmitoyl-GTAGLKKKYIGSR-OH; N-terminus and C-terminus assumed) | 65% | 50±81 nm
3 | CCCCCCCCCCCCCCCC(=O)NCC(=O)N[C@H](C(=O)N[C@@H](C)C(=O)N[C@@H](CCCCN)C(=O)N[C@@H](CCCCN)C(=O)N[C@@H](CCCCN)C(=O)N[C@@H](CCCCN)C(=O)N[C@@H](CCCCN)C(=O)N[C@@H](Cc1ccc(O)cc1)C(=O)N[C@H](C(=O)NCC(=O)N[C@@H](CO)C(=O)N[C@@H](CCCNC(=N)N)C(=O)O)[C@@H](C)CC)[C@@H](C)O [PA-C16-GTAKKKKK-YIGSR, PA-C16-GTAKKKKK-YIGSR (SEQ ID NO:20)] (Palmitoyl-GTAKKKKKYIGSR-OH; N-terminus and C-terminus assumed) | 85% | 233±58.9 nm
